Results deposited as PubChem BioAssay AID652259 (Drosophila RNAi Screening Center, 2013)

Aim: 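Identify new Wingless signalling regulators in fly cells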 (primary screen)
System: Drosophila clone 8 imaginal disc epithelial cells
Reagents: long dsRNA against Drosophila genes
Conditions: pathway stimulated by co-transfected Wingless expression plasmid
Detection: 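Dual luciferase reads per well after Wingless plasmid stimulation: reporter firefly light and Renilla control light; activity is firefly divided by Renilla, a ratio not deposited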
Scale: firefly reporter light: higher = more Wg reporter light, before normalisation; Renilla control light: higher = more transfected or surviving cells
Call rule: 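a knock-down is a candidate when at least two out of four statistical tests show it departing from its plate mean; one test alone signals a weak candidate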
Meaning of the calls: active = candidate regulator (raises or lowers reporter); inactive = not a candidate
The screen tested about 22,000 reagents; this is a random part of those with a known target gene and a result. Of all reagents, 233 (1.1%) are marked active. 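Light values are raw, unnormalised plate reads; the ratio scores behind the reporter calls were not deposited.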 The numbers tell different reagents against one gene apart. A plus sign joins genes that one reagent is predicted to hit. Not stated in the record: the amount of reagent, the time to read-out, the dose of the treatment.

| gene knocked down | dsRNA no. | reporter change call, replicate 1 | firefly reporter light, replicate 1 | firefly reporter light, replicate 2 | Renilla control light, replicate 1 | Renilla control light, replicate 2 | outcome |
| --- | --- | --- | --- | --- | --- | --- | --- |
| CG9588 (GeneID 41672) | 1 | – | 14024 | – | 2662 | – | inactive |
| Eig71Eg (GeneID 39708) | 1 | – | 8243 | – | 3959 | – | inactive |
| beta4GalNAcTB (GeneID 43425) | 1 | – | 6690 | – | 2930 | – | inactive |
| CG7120 (GeneID 38954) | 1 | – | 3842 | – | 1228 | – | inactive |
| CG7120 (GeneID 38954) | 2 | – | 1558 | 4940 | 998 | 2841 | inactive |
| CG42496 + Ppcdc | 1 | – | 22464 | – | 11666 | – | inactive |
| Polr3B (GeneID 36289) | 1 | – | 9049 | – | 2690 | – | inactive |
| CG33160 (GeneID 326265) | 1 | – | 4373 | – | 1850 | – | inactive |
| eIF2Bgamma (GeneID 36722) | 1 | – | 16365 | – | 5512 | – | inactive |
| ssh (GeneID 42986) | 1 | – | 17164 | – | 11332 | – | inactive |
| CG8299 (GeneID 36751) | 1 | – | 4424 | – | 1731 | – | inactive |
| ProtA (GeneID 34866) | 1 | – | 3700 | 6228 | 920 | 3334 | inactive |
| Mdr50 (GeneID 36582) | 1 | – | 9061 | – | 3882 | – | inactive |
| CG4617 (GeneID 31657) | 1 | – | 2426 | 5841 | 758 | 1773 | inactive |
| eIF4H2 (GeneID 43645) | 1 | – | 3444 | 6823 | 1280 | 2381 | inactive |
| Bin1 (GeneID 41965) | 1 | – | 17315 | – | 3898 | – | inactive |
| CG7530 (GeneID 41784) | 1 | – | 10032 | 8.78e5 | 3355 | 2.78e5 | inactive |
| Mec2 (GeneID 32905) | 1 | – | 1484 | 5061 | 720 | 2458 | inactive |
| holn1 (GeneID 34432) | 1 | – | 15521 | – | 5372 | – | inactive |
| holn1 (GeneID 34432) | 2 | – | 4.72e5 | 5.38e5 | 1.78e5 | 2.33e5 | inactive |
| CG9109 (GeneID 33844) | 1 | – | 8369 | – | 3907 | – | inactive |
| oys (GeneID 36045) | 1 | – | 20048 | – | 11737 | – | inactive |
| oys (GeneID 36045) | 2 | – | 5827 | – | 2346 | – | inactive |
| CG6800 (GeneID 42562) | 1 | – | 28376 | – | 4704 | – | inactive |
| CG13102 (GeneID 34228) | 1 | – | 2583 | 4224 | 945 | 2748 | inactive |
| Ravus (GeneID 41626) | 1 | – | 15931 | – | 2000 | – | inactive |
| CG3061 (GeneID 41707) | 1 | – | 14272 | – | 1954 | – | inactive |
| aph-1 (GeneID 33467) | 1 | – | 10112 | – | 4314 | – | inactive |
| St1 (GeneID 37742) | 1 | – | 20080 | – | 3667 | – | inactive |
| Snp (GeneID 37511) | 1 | – | 2578 | 5605 | 659 | 2344 | inactive |
| Snp (GeneID 37511) | 2 | – | 5.05e5 | 4.22e5 | 2.52e5 | 2.06e5 | inactive |
| CG6006 (GeneID 41962) | 1 | – | 1344 | – | 464 | – | inactive |
| CG6006 (GeneID 41962) | 2 | – | 2007 | 4544 | 512 | 1649 | inactive |
| CG15435 (GeneID 33655) | 1 | – | 1241 | 2620 | 310 | 1274 | inactive |
| CG7707 (GeneID 39923) | 1 | – | 8530 | – | 3303 | – | inactive |
| CG15824 (GeneID 33272) | 1 | – | 3507 | 11307 | 1811 | 3858 | inactive |
| CG10561 (GeneID 35189) | 1 | – | 8416 | – | 2598 | – | inactive |
| Gbp2 (GeneID 36937) | 1 | – | 17725 | – | 3656 | – | inactive |
| CG42240 (GeneID 7354471) | 1 | – | 1377 | 5600 | 464 | 2187 | inactive |
| Tbc1d15-17 (GeneID 33184) | 1 | – | 9047 | – | 3600 | – | inactive |
| beta-Spec (GeneID 32746) | 1 | – | 16570 | – | 10221 | – | inactive |
| Ir64a (GeneID 38616) | 1 | – | 1563 | 8839 | 1025 | 1899 | inactive |
| Ir64a (GeneID 38616) | 2 | – | 1272 | 6325 | 1188 | 3098 | inactive |
| CG8924 (GeneID 32557) | 1 | – | 3586 | 7099 | 746 | 1025 | inactive |
| CG7600 (GeneID 39267) | 1 | – | 12688 | – | 4467 | – | inactive |
| CG8837 (GeneID 33545) | 1 | – | 2429 | 6523 | 864 | 2092 | inactive |
| CG31835 + CG42585 | 1 | – | 18908 | – | 11192 | – | inactive |
| Mul1 (GeneID 38472) | 1 | – | 6048 | – | 3131 | – | inactive |
| NAT1 (GeneID 46020) | 1 | Wg reporter activity raised | 71467 | – | 1894 | – | active |
| melt (GeneID 38785) | 1 | – | 2080 | 11788 | 1335 | 4169 | inactive |
| CG32037 (GeneID 326183) | 1 | – | 9063 | – | 3712 | – | inactive |
| Nup154 (GeneID 34527) | 1 | – | 14181 | – | 1485 | – | inactive |
| CG10694 (GeneID 42855) | 1 | – | 19127 | – | 13508 | – | inactive |
| barr (GeneID 35287) | 1 | – | 2269 | 11552 | 321 | 2008 | inactive |
| CG5292 (GeneID 42079) | 1 | – | 10931 | – | 3851 | – | inactive |
| CG8100 (GeneID 39565) | 1 | – | 7211 | – | 3312 | – | inactive |
| CG16713 (GeneID 33591) | 1 | – | 3160 | 9433 | 1024 | 2787 | inactive |
| Tsp42Ek (GeneID 35621) | 1 | – | 2129 | 9513 | 669 | 3745 | inactive |
| Ssb-c31a (GeneID 34120) | 1 | – | 3340 | 10025 | 1781 | 5675 | inactive |
| mod(mdg4) (GeneID 49228) | 1 | – | 3467 | – | 1528 | – | inactive |
| mod(mdg4) (GeneID 49228) | 2 | – | 3536 | – | 1472 | – | inactive |
| mod(mdg4) (GeneID 49228) | 3 | – | 2441 | – | 1058 | – | inactive |
| mod(mdg4) (GeneID 49228) | 4 | – | 4162 | – | 1192 | – | inactive |
| mod(mdg4) (GeneID 49228) | 5 | – | 32648 | – | 7605 | – | inactive |
| mod(mdg4) (GeneID 49228) | 6 | – | 2983 | 7794 | 1576 | 2852 | inactive |
| CG42266 (GeneID 7354431) | 1 | – | 3.77e5 | 4.20e5 | 1.45e5 | 1.63e5 | inactive |
| CG42266 (GeneID 7354431) | 2 | – | 3.07e5 | 4.10e5 | 1.49e5 | 1.89e5 | inactive |
| rdgB (GeneID 32340) | 1 | – | 5868 | – | 1255 | – | inactive |
| slow (GeneID 38540) | 1 | – | 5939 | – | 1792 | – | inactive |
| slow (GeneID 38540) | 2 | – | 1990 | 5155 | 1322 | 2368 | inactive |
| Sgf29 (GeneID 37429) | 1 | – | 8050 | – | 2343 | – | inactive |
| CG34164 (GeneID 5740394) | 1 | – | 2822 | 5751 | 1058 | 2339 | inactive |
| CG7728 (GeneID 39904) | 1 | – | 3819 | – | 1660 | – | inactive |
